The values are deposited in ChEMBL (CHEMBL3988442, “University of Dundee, Small-Polar-MMV Screening Library” (2021)).

Mtb cholesterol medium: 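Phenotypic screen: M. tuberculosis growth, cholesterol and DPPC medium, 4 days; the read-out is not stated. Tested at 50 µM. Direction is inferred from retests: higher values go with more growth inhibition. Size under these conditions: about 69,000 compounds, about 370 of them at 50% or above in at least one test.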
Mtb glucose medium: 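Phenotypic screen: M. tuberculosis growth, glucose 7H9 medium, 3 days; the read-out is not stated. Tested at 50 µM. Higher reads as more growth inhibition (inferred: compounds with an IC50 in retests scored well above the rest). Of about 69,000 compounds tested this way, about 760 (1.1%) reached 50% or more in at least one test.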

Values are the deposited “Percent Effect”, in %. The record does not define 0% and 100%; most values in the screen are far below 50% and negative numbers occur (in some assays of this library far below -100). This is an unselected part of the compounds tested. Two or more numbers in one place are separate tests of the same structure; such repeats can differ widely.

Compound	Mtb cholesterol medium	Mtb glucose medium
Cc1cc(CN2CCN(CC(O)c3ccc(Cl)cc3)CC2)no1 (stereo not drawn)	14.3	16.61
CN1CCc2ccc(NCc3cscn3)cc2C1=O	6.716	14.97 & -7.752
Cc1csc(CNC(=O)Cc2ccc3c(c2)OCCO3)n1	25.74	29.83
CCc1nc(CN(C)C(=O)c2cc(CN(CC)CC)c(CC)o2)no1	-4.374	16.95
CCc1cc(NCCNc2cccnc2)n2nccc2n1	0.7799	14.47
O=C1COc2cc(C(=O)NS(=O)(=O)c3cccc(Cl)c3)ccc2N1	-15.51	23.5
CCNC(=O)C1CN(Cc2c(-c3cc(C)on3)nn(C)c2Cl)CCO1 (stereo not drawn)	-12.25	-29.14
COCCN(CCOC)C(=O)c1cccc(Cn2nc(C)cc2C)c1	-9.945	3.131
COCCN1CC(C(=O)N(C)Cc2ccc(Cl)s2)CC1=O (stereo not drawn)	3.116	7.549
COCc1ccc(C(=O)N2CC[C@@](O)(COC)C(C)(C)C2)o1	-10.47	15.39
Cc1cnc(NCc2ccc(S(=O)(=O)N(C)C(C)C)cc2)nc1C	12.47	12.46
Cc1cc(C)n(C2CN(Cc3nc4cc(Cl)ccc4n3C)C2)n1	-10.81	-4.783
[H][C@@]12CCN(S(=O)(=O)C3CC3)[C@@]1([H])CCN2C(=O)c1cnccn1	-8.748	11.23 & -0.8591
COc1cc(OC)cc(-c2cc(CN)nc3ccnn23)c1.Cl	-0.9863	2.635
[H][C@@]12CN(Cc3c[nH]c4ccccc34)C[C@]1([H])OCC(=O)N2	-6.497	-8.133 & -24.85
CCN(CC)CC1CN(Cc2nccs2)Cc2nccn2C1.O=C(O)C(F)(F)F.O=C(O)C(F)(F)F (stereo not drawn)	2.419	0.6933 & -3.195
Cc1ccc(Cl)cc1N1CCC(CNC(=O)CCn2ccnc2)C1 (stereo not drawn)	13.03	39.05
Cc1cc(NC(=O)NCc2cccnc2OC(C)C)no1	-16.13	-10.56
CCCc1n[nH]c(C2CN(C(=O)c3cc(C4CC4)on3)CCO2)n1 (stereo not drawn)	0.06742	30.25
Cc1cc(C(=O)NCc2cccnc2N2CCCC(O)C2)c(C)o1 (stereo not drawn)	-9.898	-8.993
Cc1cccc(-c2noc(CN3CCn4c(nnc4C4CC4)C3)n2)c1	-3.573	2.109 & -4.642
Cc1noc(C)c1CCC(=O)N[C@@H]1CC[C@@H](Oc2cccnc2)[C@@H]1O	-23.18	3.072
CN(C)[C@@H]1CCN(S(=O)(=O)C2CC2)[C@H]1Cc1ccccc1.O=C(O)C(F)(F)F	-5.895	-18.48
Cc1nn(C)c(C)c1C1CCCN1CC(=O)Nc1ccncc1 (stereo not drawn)	-8.579	-5.387
[H][C@@]12CS(=O)(=O)C[C@]1([H])N(C(=O)C1CC1)CCN2Cc1[nH]cnc1C	8.381	33.06
COc1ccc(CC(=O)N2CCCC(c3cc(C)[nH]n3)C2)cc1 (stereo not drawn)	-6.005	16.15
CC(=O)NC(C(=O)N(C)Cc1nnc2n1CCC2)C(C)C (stereo not drawn)	-18.03	-18.47
Cl.NCC1CCCCN1C(=O)Cc1cccc(Cl)c1 (stereo not drawn)	4.916	2.553
COCCN(Cc1nccs1)C(=O)c1cc(-c2ccc(C)o2)n[nH]1	-16.03	-38.71
O=C(Cc1ccsc1)N1CCn2cc(CN3CCCC3)nc2C1	-3.566	14.83
O=C(O)C(F)(F)F.O=C(O)C(F)(F)F.[H][C@@]12CCCO[C@]1([H])[C@@H](OCCN(C)C)CN2Cc1ccc(C)o1	-22.03	-9.827 & -26.42
CN(C)c1ncc(CNC2CC(=O)N(CCc3cccc(Cl)c3)C2)s1 (stereo not drawn)	20.35	-5.014
CCN(Cc1cnn(C)c1)C(=O)c1cc2ccccc2c(=O)[nH]1	-34.24	-12.9
CC1(C)CN=C(N2CCN(CC3CCCCO3)CC2)S1 (stereo not drawn)	5.719	6.551
Cc1cccc(CNC2CCCc3c2cnn3C)c1.Cl (stereo not drawn)	2.033	15.52
CNC(=O)c1nc2c(s1)CCN(C(=O)c1cccc(OC)c1)CC2	-10.05	-9.804 & -14.72
Cc1ccc(C(=O)N(C)CC(=O)Nc2cccc(C)n2)cn1	9.44	9.163
O=C(O)C(F)(F)F.[H][C@@]12CN(CC3CC3)C[C@]1([H])[C@@H](OC)CCN2C(=O)Cc1ccsc1	-2.602	13.26
O=C1NCCCCC1SCc1coc(-c2ccccc2)n1 (stereo not drawn)	0.5651	9.275
O=C(Cn1cccnc1=O)NCc1cccnc1OCC(F)(F)F	-10.79	0.1923 & -9.171
CC(NC(=O)NCCN1CCCCCC1=O)c1ccc(Cl)s1 (stereo not drawn)	8.727	16.64
Cc1cc(C)n(CC(=O)N2CCCC2c2cc3cccnc3[nH]2)n1 (stereo not drawn)	-1.839	10.54
Cn1cc(CN(C/C=C/c2ccccc2)C2CC2)cn1	9.698	27.83
c1cn2c(n1)CO[C@@H](CNCc1ccc3c(c1)OCO3)C2	-7.185	-1.649 & -16.46
CCCC1C=CCN1C(=O)c1cc(COc2ccc3c(c2)OCO3)[nH]n1 (stereo not drawn)	29.19	45.88 & 41.02
OCC1(Cc2ccc(Cl)cc2)CCN(Cc2ccccc2O)CC1	-5.324 & 16	26.32 & 5.745
CCc1cc(N2CCC(n3cc(C(=O)NC4CC4)nn3)CC2)ncn1	15.92	-14.16
COc1ccc(C(C)NCc2ccc(OC)c(OC)c2OC)cc1F.Cl (stereo not drawn)	-7.657 & -2.677	2.138
O=C(Nc1ccc(CCN2CCOCC2)cc1)C1CCCC1	-11.71	-43.52
CS(=O)(=O)Cc1ccc(CNC(=O)N2CCC(C(N)=O)C2)cc1 (stereo not drawn)	-2.63	-0.01567
CCC(C)(C)C(=O)NCCCOC1CCOC1 (stereo not drawn)	-19.53	2.621
CCC1(C(=O)O)CCCN(CCOCc2ccccc2)C1 (stereo not drawn)	-17.78	6.104
CC(C)CNC(=O)c1nnsc1-c1ccccc1	1.657	6.724
CC(NS(=O)(=O)N(C)C)c1cccc(-n2cccn2)c1 (stereo not drawn)	-2.392	12.56 & 0.5851
CN(C)c1cc(CNC(=O)c2ccc(O)nc2)ccn1	-28.44	15.71
O=C(c1ccccc1-n1cccn1)N1CCCN(c2cccnn2)CC1	-12.8	-1.007
Cc1cnn(C2CN(Cc3nc(-c4cccnc4)no3)C2)c1	-10.38	11.64
Cc1nc(N2CCN(C(=O)c3ccco3)CC2)c2c(n1)c(C)nn2C	14.72	19.64
Cc1noc(CN2CCN(CCO)CC2)n1	4.589	-3.173 & 4.649
OCCN1CCC(c2cncc(-c3cccc(Cl)c3)n2)CC1	-2.597	20.5
CN(C)C(C(=O)NCC1(N(C)C)CCOCC1)c1ccccc1F (stereo not drawn)	-0.4329	-3.559
Cc1nn(C)c(N2CCOCC2)c1CNCc1ccc2c(c1)OCO2	5.541	15.75

For reference, 7 entries once more:

{"compound": "CS(=O)(=O)Cc1ccc(CNC(=O)N2CCC(C(N)=O)C2)cc1", "stereo": "stereo not drawn", "Mtb cholesterol medium": -2.63, "Mtb glucose medium": -0.01567}
{"compound": "CN(C)[C@@H]1CCN(S(=O)(=O)C2CC2)[C@H]1Cc1ccccc1.O=C(O)C(F)(F)F", "Mtb cholesterol medium": -5.895, "Mtb glucose medium": -18.48}
{"compound": "COc1cc(OC)cc(-c2cc(CN)nc3ccnn23)c1.Cl", "Mtb cholesterol medium": -0.9863, "Mtb glucose medium": 2.635}
{"compound": "CC1(C)CN=C(N2CCN(CC3CCCCO3)CC2)S1", "stereo": "stereo not drawn", "Mtb cholesterol medium": 5.719, "Mtb glucose medium": 6.551}
{"compound": "Cc1noc(C)c1CCC(=O)N[C@@H]1CC[C@@H](Oc2cccnc2)[C@@H]1O", "Mtb cholesterol medium": -23.18, "Mtb glucose medium": 3.072}
{"compound": "CCN(CC)CC1CN(Cc2nccs2)Cc2nccn2C1.O=C(O)C(F)(F)F.O=C(O)C(F)(F)F", "stereo": "stereo not drawn", "Mtb cholesterol medium": 2.419, "Mtb glucose medium": "0.6933 & -3.195"}
{"compound": "Cc1cccc(CNC2CCCc3c2cnn3C)c1.Cl", "stereo": "stereo not drawn", "Mtb cholesterol medium": 2.033, "Mtb glucose medium": 15.52}